Laboratory results taken from the supplement of paper PMC4604168 (melanoma cell lines).
The list shows a part of the results. Repeats are few or missing, and single values can be far off.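 The apoptosis fraction was the count of cleaved-PARP antibody-stained nuclei relative to all DNA-stained nuclei, imaged in 1,536-well plates. Screening doses were set so most cells survived, and baseline and induced cleaved-PARP levels vary greatly across cell lines.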

System: WM1716
Assay: cleaved PARP positive nuclei fraction relative to DMSO control; melanoma cells; higher = more apoptosis
Settings: library dose: low library concentration; 72 h

| Structure (SMILES) | cleaved PARP positive nuclei fraction [%] |
| --- | --- |
| COCC[n+]1c2c(n(Cc3cnccn3)c1C)C(=O)c1ccccc1C2=O + COc1cc(N2CCC(N3CCN(C)CC3)CC2)ccc1Nc1ncc(Cl)c(Nc2ccccc2S(=O)(=O)C(C)C)n1 [NVP-TAE684] (first compound 0.0004 µM, partner dose 0.08 µM) | 123 |
| Cn1nnc2c(C(N)=O)ncn2c1=O [temozolomide] + COc1cc2ncnc(Nc3ccc(Oc4ccccc4)cc3)c2cc1OC [SrcI1] (first compound 2 µM, partner dose 2 µM) | 66.6 |
| CC(C)(C)c1cnc(CSc2cnc(NC(=O)C3CCNCC3)s2)o1 + COC(=O)c1sccc1S(=O)(=O)Nc1ccc(Nc2ccccc2)cc1OC [GSK0660] (first compound 0.01 µM, partner dose 1 µM) | 123 |
| CC(=O)c1c(C)c2cnc(Nc3ccc(N4CCNCC4)cn3)nc2n(C2CCCC2)c1=O [palbociclib] + Clc1ccc(Nc2nnc(Cc3ccncc3)c3ccccc23)cc1 [vatalanib] (first compound 0.04 µM, partner dose 2 µM) | 184 |
| Cc1ccc(NC(=O)c2cccc(N(C)C)c2)cc1NC(=O)c1ccc(O)cc1 + Cc1cc(N2CCOCC2)cc2[nH]c(-c3c(NC[C@@H](O)c4cccc(Cl)c4)cc[nH]c3=O)nc12 [BMS536924] (first compound 2 µM, partner dose 0.2 µM) | 61.6 |
| O=C(CCCCCCC(=O)Nc1ccccc1)NO [vorinostat] + CC1(C)NC(=O)N(c2ccc([N+](=O)[O-])c(C(F)(F)F)c2)C1=O [nilutamide] (first compound 0.08 µM, partner dose 1 µM) | 132 |
| CC(=O)c1c(C)c2cnc(Nc3ccc(N4CCNCC4)cn3)nc2n(C2CCCC2)c1=O [palbociclib] + CCc1ccc(CCOc2ccc(CC3SC(=O)NC3=O)cc2)nc1 [pioglitazone] (first compound 0.04 µM, partner dose 2 µM) | 126 |
| Clc1ccc(Nc2nnc(Cc3ccncc3)c3ccccc23)cc1 [vatalanib] + Cn1nnc2c(C(N)=O)ncn2c1=O [temozolomide] (first compound 2 µM, partner dose 2 µM) | 70.7 |
| C#Cc1cccc(Nc2ncnc3cc(OCCOC)c(OCCOC)cc23)c1 [erlotinib] + OCCn1cc(-c2cnc3nnn(Cc4ccc5ncccc5c4)c3n2)cn1 [PF04217903] (first compound 0.8 µM, partner dose 1 µM) | 253 |
| Cn1cncc1[C@@](N)(c1ccc(Cl)cc1)c1ccc2c(c1)c(-c1cccc(Cl)c1)cc(=O)n2C [tipifarnib] + Oc1cc(-c2nc(-c3ccccc3)[nH]c2-c2ccncc2)ccc1Cl [L779450] (first compound 0.01 µM, partner dose 0.2 µM) | 96.5 |
| Cn1c(Nc2ccc(C(F)(F)F)cc2)nc2cc(Oc3ccnc(-c4ncc(C(F)(F)F)[nH]4)c3)ccc21 + N#Cc1c(O)c2c(-c3ccc(-c4ccccc4O)cc3)csc2[nH]c1=O [A769662] (first compound 0.08 µM, partner dose 2 µM) | 63.3 |
| O=C(CCCCCCC(=O)Nc1ccccc1)NO [vorinostat] + O=S(=O)(c1ccccc1)N(CC(F)(F)F)c1ccc(C(O)(C(F)(F)F)C(F)(F)F)cc1 [T0901317] (first compound 0.08 µM, partner dose 1.4 µM) | 61 |
| C[C@]1(c2nc3c(C(N)=O)cccc3[nH]2)CCCN1 [Veliparib] + COc1ccc(-c2ccc3c(N4CCOCC4)nc(N4C[C@@H](C)O[C@@H](C)C4)nc3n2)cc1CO [KU0063794] (first compound 1.4 µM, partner dose 0.02 µM) | 139 |
| Cn1c(Nc2ccc(C(F)(F)F)cc2)nc2cc(Oc3ccnc(-c4ncc(C(F)(F)F)[nH]4)c3)ccc21 + O=C1NC(=O)/C(=C/c2ccc(-c3ccc(F)cc3O)o2)S1 [AS252424] (first compound 0.08 µM, partner dose 1 µM) | 151 |
| Cc1cc(N2CCOCC2)cc2[nH]c(-c3c(NC[C@@H](O)c4cccc(Cl)c4)cc[nH]c3=O)nc12 + CCN(CC)CCCCNc1ncc2cc(-c3cc(OC)cc(OC)c3)c(NC(=O)NC(C)(C)C)nc2n1 [PD173074] (first compound 0.2 µM, partner dose 0.1 µM) | 62.8 |
| Cc1nc(Nc2ncc(C(=O)Nc3c(C)cccc3Cl)s2)cc(N2CCN(CCO)CC2)n1 [dasatanib] + O=C(O)C(=O)Nc1sc2c(c1C(=O)O)CCNC2 [TCS401] (first compound 0.004 µM, partner dose 1.66667 µM) | 162 |
| Cc1ccc(NC(=O)c2cccc(N(C)C)c2)cc1NC(=O)c1ccc(O)cc1 + N#Cc1c(O)c2c(-c3ccc(-c4ccccc4O)cc3)csc2[nH]c1=O [A769662] (first compound 2 µM, partner dose 2 µM) | 113 |
| C#Cc1cccc(Nc2ncnc3cc(OCCOC)c(OCCOC)cc23)c1 [erlotinib] + N#Cc1c(O)c2c(-c3ccc(-c4ccccc4O)cc3)csc2[nH]c1=O [A769662] (first compound 0.8 µM, partner dose 2 µM) | 69.2 |
| Nc1cccc2c1CN(C1CCC(=O)NC1=O)C2=O (stereo not given) [lenalidomide] + NC(=O)Nc1cc(-c2cccc(F)c2)sc1C(=O)N[C@H]1CCCNC1 [AZD7762] (first compound 1 µM, partner dose 0.02 µM) | 149 |
| Nc1cccc2c1CN(C1CCC(=O)NC1=O)C2=O (stereo not given) [lenalidomide] + COc1cc(N2CCC(N3CCN(C)CC3)CC2)ccc1Nc1ncc(Cl)c(Nc2ccccc2S(=O)(=O)C(C)C)n1 [NVP-TAE684] (first compound 1 µM, partner dose 0.08 µM) | 63.5 |
| NC(=O)Nc1cc(-c2cccc(F)c2)sc1C(=O)N[C@H]1CCCNC1 + O=c1cc(-c2cccc3c2Sc2ccccc2S3)oc(N2CCOCC2)c1 [KU55933] (first compound 0.02 µM, partner dose 1 µM) | 116 |
| Cc1cc(N2CCOCC2)cc2[nH]c(-c3c(NC[C@@H](O)c4cccc(Cl)c4)cc[nH]c3=O)nc12 + Oc1nc(-c2ccc(C(F)(F)F)cc2)nc2c1CSCC2 [XAV939] (first compound 0.2 µM, partner dose 2 µM) | 169 |
| Nc1cccc2c1CN(C1CCC(=O)NC1=O)C2=O (stereo not given) [lenalidomide] + C=CCn1c(=O)c2cnc(Nc3ccc(N4CCN(C)CC4)cc3)nc2n1-c1cccc(C(C)(C)O)n1 [MK1775] (first compound 1 µM, partner dose 0.02 µM) | 119 |
| OCc1c[nH]c2ccccc12 [Indole-3-carbinol] + COc1cc(N2CCC(N3CCN(C)CC3)CC2)ccc1Nc1ncc(Cl)c(Nc2ccccc2S(=O)(=O)C(C)C)n1 [NVP-TAE684] (first compound 0.8 µM, partner dose 0.08 µM) | 41.8 |
| Clc1ccc(Nc2nnc(Cc3ccncc3)c3ccccc23)cc1 [vatalanib] + C=CCn1c(=O)c2cnc(Nc3ccc(N4CCN(C)CC4)cc3)nc2n1-c1cccc(C(C)(C)O)n1 [MK1775] (first compound 2 µM, partner dose 0.02 µM) | 138 |
| CO[C@@H]1[C@H](N(C)C(=O)c2ccccc2)C[C@H]2O[C@]1(C)n1c3ccccc3c3c4c(c5c6ccccc6n2c5c31)C(=O)NC4 [Midostaurin] + COc1ccc2c(c1)CCC1C2CCC2(C)C(NCCCCCCN3C(=O)C=CC3=O)CCC12 [U73122] (first compound 0.08 µM, partner dose 0.4 µM) | 98.7 |
| CC(C)(C)c1cnc(CSc2cnc(NC(=O)C3CCNCC3)s2)o1 + N#Cc1c(O)c2c(-c3ccc(-c4ccccc4O)cc3)csc2[nH]c1=O [A769662] (first compound 0.01 µM, partner dose 2 µM) | 99.2 |
| Cn1nnc2c(C(N)=O)ncn2c1=O [temozolomide] + O=c1cc(-c2cccc3c2Sc2ccccc2S3)oc(N2CCOCC2)c1 [KU55933] (first compound 2 µM, partner dose 1 µM) | 90.2 |
| C[C@@H]1CCN(C(=O)CC#N)C[C@@H]1N(C)c1ncnc2[nH]ccc12 + CCCCCCCCCCCC1=C(O)C(=O)C=C(O)C1=O [Embelin] (first compound 1 µM, partner dose 1.2 µM) | 79.4 |
| C=CCn1c(=O)c2cnc(Nc3ccc(N4CCN(C)CC4)cc3)nc2n1-c1cccc(C(C)(C)O)n1 + C[C@@H]1CCN(C(=O)CC#N)C[C@@H]1N(C)c1ncnc2[nH]ccc12 [CP690550] (first compound 0.02 µM, partner dose 1 µM) | 88.5 |

Two entries picked at random from the list so far, as already listed:

| Structure (SMILES) | cleaved PARP positive nuclei fraction [%] |
| --- | --- |
| CC(=O)c1c(C)c2cnc(Nc3ccc(N4CCNCC4)cn3)nc2n(C2CCCC2)c1=O [palbociclib] + Clc1ccc(Nc2nnc(Cc3ccncc3)c3ccccc23)cc1 [vatalanib] (first compound 0.04 µM, partner dose 2 µM) | 184 |
| CC(C)(C)c1cnc(CSc2cnc(NC(=O)C3CCNCC3)s2)o1 + N#Cc1c(O)c2c(-c3ccc(-c4ccccc4O)cc3)csc2[nH]c1=O [A769662] (first compound 0.01 µM, partner dose 2 µM) | 99.2 |
